From patent US9517222B2, “Method for the treatment of senile dementia of the Alzheimer's type” (Phenomenome Discoveries Inc., priority 2007, dated 2016)
Some values come without a unit; they compare only within their column.

Columns and labels:
[1] = Serum ethanolamine phospholipid levels in human cohorts (dementia severity, post-mortem pathology, age) by flow-injection MS/MS
[2] = Serum ethanolamine phospholipid ratios to PtdEt 16:0/18:0 (M01) in human cohorts
[3] = serum, females, post mortem SDAT
[4] = serum, females, post mortem control

CCCCC/C=C\C/C=C\C/C=C\C/C=C\CCCCCC(=O)OC(COCCCCCCCCCCCCCCCC)COP(=O)(O)OCCN (centres unmarked) [Metabolite M08, Plasmanyl 16:0/22:4]
Ratio of serum levels ([1]; AD, All to CN, Male): 0.759
Ratio of serum levels ([1]; ADAS 5-19 to CN, Male): 0.806
Ratio of serum levels ([1]; ADAS 20-39 to 5-19, Male): 0.936
Ratio of serum levels ([1]; ADAS 20-39 to CN, Male): 0.755
Ratio of serum levels ([1]; ADAS 40-70 to 5-19, Male): 0.780
Ratio of serum levels ([1]; ADAS 40-70 to 20-39, Male): 0.833
Ratio of serum levels ([1]; ADAS 40-70 to CN, Male): 0.629
Serum level, Mean ([1]; Cognitive Normal, Female): 0.006
Average serum level, Mean ([1]; Cognitive Normal, Male): 0.007
Serum level, Mean ([1]; Post Mortem Ctl, Male): 0.003
Serum level, Mean ([1]; Post Mortem SDAT Male): 0.002
Ratio of serum levels ([1]; Post mortem SDAT vs Control, Male): 0.410
Serum level, Mean ([1]; SDAT, ADAS 5-19, Female): 0.005
Average serum level, Mean ([1]; SDAT, ADAS 5-19, Male): 0.006
Serum level, Mean ([1]; SDAT, ADAS 20-39, Female): 0.006
Average serum level, Mean ([1]; SDAT, ADAS 20-39, Male): 0.005
Serum level, Mean ([1]; SDAT, ADAS 40-70, Female): 0.005
Average serum level, Mean ([1]; SDAT, ADAS 40-70, Male): 0.004
Serum level, Mean ([1]; SDAT_all, Female): 0.005
Average serum level, Mean ([1]; SDAT_all, Male): 0.005
Ratio, ADAS 5-19 to CN, Female ([1]; serum level ratio, females, ADAS 5-19 vs CN): 0.849
Ratio, ADAS 20-39 to 5-19, Female ([1]; serum level ratio, females, ADAS 20-39 vs ADAS 5-19): 1.046
Ratio, ADAS 20-39 to CN, Female ([1]; serum level ratio, females, ADAS 20-39 vs CN): 0.889
Ratio, ADAS 40-70 to 5-19, Female ([1]; serum level ratio, females, ADAS 40-70 vs ADAS 5-19): 0.850
Ratio, ADAS 40-70 to 20-39, Female ([1]; serum level ratio, females, ADAS 40-70 vs ADAS 20-39): 0.812
Ratio, ADAS 40-70 to CN, Female ([1]; serum level ratio, females, ADAS 40-70 vs CN): 0.722
Ratio, 50-59 vs. 40-49, Female ([1]; serum level ratio, females, age 50-59 vs 40-49): 0.721
Ratio, 60-69 vs. 40-49, Female ([1]; serum level ratio, females, age 60-69 vs 40-49): 0.569
Ratio, 70+ vs. 40-49, Female ([1]; serum level ratio, females, age 70+ vs 40-49): 0.640
Ratio, AD, All to CN, Female ([1]; serum level ratio, females, all AD vs cognitively normal): 0.821
Ratio, Autopsy AD vs. Control, Female ([1]; serum level ratio, females, autopsy AD vs control): 0.684
Ratio, 50-59 vs. 40-49, Male ([1]; serum level ratio, males, age 50-59 vs 40-49): 1.031
Ratio, 60-69 vs. 40-49, Male ([1]; serum level ratio, males, age 60-69 vs 40-49): 1.014
Ratio, 70+ vs. 40-49, Male ([1]; serum level ratio, males, age 70+ vs 40-49): 0.907
Mean serum level, Age Ctl, 30-39, Female ([1]; serum, females, age 30-39): 0.008
Mean serum level, Age Ctl, 40-49, Female ([1]; serum, females, age 40-49): 0.010
Mean serum level, Age Ctl, 50-59, Female ([1]; serum, females, age 50-59): 0.007
Mean serum level, Age Ctl, 60-69, Female ([1]; serum, females, age 60-69): 0.006
Mean serum level, Age Ctl, 70+, Female ([1]; serum, females, age 70+): 0.006
Mean serum level, Post Mortem SDAT, Female [1, 3]: 0.001
Mean serum level, Post Mortem Ctl, Female [1, 4]: 0.003
Mean serum level, Age Ctl, 30-39, Male ([1]; serum, males, age 30-39): 0.010
Mean serum level, Age Ctl, 40-49, Male ([1]; serum, males, age 40-49): 0.007
Mean serum level, Age Ctl, 50-59, Male ([1]; serum, males, age 50-59): 0.007
Mean serum level, Age Ctl, 60-69, Male ([1]; serum, males, age 60-69): 0.007
Mean serum level, Age Ctl, 70+, Male ([1]; serum, males, age 70+): 0.006
Ratio of ethanolamine phospholipid ratios to M01 between cohorts ([2]; AD, All to CN, Male): 0.713
Ratio of ethanolamine phospholipid ratios to M01 between cohorts ([2]; ADAS 5-19 to CN, Male): 0.747
Ratio of ethanolamine phospholipid ratios to M01 between cohorts ([2]; ADAS 20-39 to CN, Male): 0.727
Ratio of ethanolamine phospholipid ratios to M01 between cohorts ([2]; ADAS 40-70 to CN, Male): 0.602
Average serum ethanolamine phospholipid ratio to M01, Mean ([2]; Cognitive Normal, Male, serum): 0.062
Average serum ethanolamine phospholipid ratio to M01, Mean ([2]; SDAT, ADAS 5-19, Male, serum): 0.047
Average serum ethanolamine phospholipid ratio to M01, Mean ([2]; SDAT, ADAS 20-39, Male, serum): 0.045
Average serum ethanolamine phospholipid ratio to M01, Mean ([2]; SDAT, ADAS 40-70, Male, serum): 0.038
Average serum ethanolamine phospholipid ratio to M01, Mean ([2]; SDAT_all, Male, serum): 0.044
Ethanolamine Phospholipid Ratio to M01, Mean, Age Ctl, 30-39, Female ([2]; human serum, females aged 30-39): 0.079
Ethanolamine Phospholipid Ratio to M01, Mean, Age Ctl, 40-49, Female ([2]; human serum, females aged 40-49): 0.089
Ethanolamine Phospholipid Ratio to M01, Mean, Age Ctl, 50-59, Female ([2]; human serum, females aged 50-59): 0.070
Ratio of Ethanolamine Phospholipid Ratio to M01, 50-59 vs. 40-49, Female ([2]; human serum, females aged 50-59 vs. females aged 40-49): 0.783
Ethanolamine Phospholipid Ratio to M01, Mean, Age Ctl, 60-69, Female ([2]; human serum, females aged 60-69): 0.047
Ratio of Ethanolamine Phospholipid Ratio to M01, 60-69 vs. 40-49, Female ([2]; human serum, females aged 60-69 vs. females aged 40-49): 0.533
Ethanolamine Phospholipid Ratio to M01, Mean, Age Ctl, 70+_Female ([2]; human serum, females aged 70+): 0.052
Ratio of Ethanolamine Phospholipid Ratio to M01, 70+ vs. 40-49, Female ([2]; human serum, females aged 70+ vs. females aged 40-49): 0.583
Ratio of Ethanolamine Phospholipid Ratio to M01, 50-59 vs. 40-49, Male ([2]; human serum, males aged 50-59 vs. males aged 40-49): 1.053
Ratio of Ethanolamine Phospholipid Ratio to M01, 60-69 vs. 40-49, Male ([2]; human serum, males aged 60-69 vs. males aged 40-49): 0.847
Ratio of Ethanolamine Phospholipid Ratio to M01, 70+ vs. 40-49, Male ([2]; human serum, males aged 70+ vs. males aged 40-49): 0.765
Ratio of ethanolamine phospholipid ratio to M01, ADAS 5-19 to CN, Female ([2]; serum, females, ADAS 5-19 vs cognitive normal): 0.934
Ratio of ethanolamine phospholipid ratio to M01, ADAS 20-39 to 5-19, Female ([2]; serum, females, ADAS 20-39 vs ADAS 5-19): 1.010
Ratio of ethanolamine phospholipid ratio to M01, ADAS 20-39 to CN, Female ([2]; serum, females, ADAS 20-39 vs cognitive normal): 0.943
Ratio of ethanolamine phospholipid ratio to M01, ADAS 40-70 to 5-19, Female ([2]; serum, females, ADAS 40-70 vs ADAS 5-19): 0.787
Ratio of ethanolamine phospholipid ratio to M01, ADAS 40-70 to 20-39, Female ([2]; serum, females, ADAS 40-70 vs ADAS 20-39): 0.780
Ratio of ethanolamine phospholipid ratio to M01, ADAS 40-70 to CN, Female ([2]; serum, females, ADAS 40-70 vs cognitive normal): 0.735
Ethanolamine phospholipid ratio to M01, Mean, SDAT, ADAS 5-19, Female ([2]; serum, females, SDAT ADAS 5-19): 0.050
Ethanolamine phospholipid ratio to M01, Mean, SDAT, ADAS 20-39, Female ([2]; serum, females, SDAT ADAS 20-39): 0.051
Ethanolamine phospholipid ratio to M01, Mean, SDAT, ADAS 40-70, Female ([2]; serum, females, SDAT ADAS 40-70): 0.039
Ratio of ethanolamine phospholipid ratio to M01, AD, All to CN, Female ([2]; serum, females, all AD vs cognitive normal): 0.869
Ethanolamine phospholipid ratio to M01, Mean, SDAT_all Female ([2]; serum, females, all SDAT): 0.047
Ratio of ethanolamine phospholipid ratio to M01, Autopsy AD vs. Control, Female ([2]; serum, females, autopsy AD vs post mortem control): 0.981
Ethanolamine phospholipid ratio to M01, Mean, Cognitive Normal, Female ([2]; serum, females, cognitive normal): 0.054
Ethanolamine phospholipid ratio to M01, Mean, Post Mortem SDAT Female [2, 3]: 0.017
Ethanolamine phospholipid ratio to M01, Mean, Post Mortem Ctl, Female [2, 4]: 0.017
Ratio of ethanolamine phospholipid ratio to M01, ADAS 20-39 to 5-19, Male ([2]; serum, males, SDAT ADAS 20-39 vs ADAS 5-19): 0.973
Ratio of ethanolamine phospholipid ratio to M01, ADAS 40-70 to 5-19, Male ([2]; serum, males, SDAT ADAS 40-70 vs ADAS 5-19): 0.806
Ratio of ethanolamine phospholipid ratio to M01, ADAS 40-70 to 20-39, Male ([2]; serum, males, SDAT ADAS 40-70 vs ADAS 20-39): 0.828
Ethanolamine phospholipid ratio to M01, Mean, Age Ctl, 30-39, Male ([2]; serum, males, age control 30-39): 0.079
Ethanolamine phospholipid ratio to M01, Mean, Age Ctl, 40-49, Male ([2]; serum, males, age control 40-49): 0.064
Ethanolamine phospholipid ratio to M01, Mean, Age Ctl, 50-59, Male ([2]; serum, males, age control 50-59): 0.067
Ethanolamine phospholipid ratio to M01, Mean, Age Ctl, 60-69, Male ([2]; serum, males, age control 60-69): 0.054
Ethanolamine phospholipid ratio to M01, Mean, Age Ctl, 70+_Male ([2]; serum, males, age control 70+): 0.049
Ethanolamine phospholipid ratio to M01, Mean, Post Mortem SDAT Male ([2]; serum, males, post mortem SDAT): 0.012
Ratio of ethanolamine phospholipid ratio to M01, SDAT vs Control (post mortem, males) ([2]; serum, males, post mortem SDAT vs post mortem control): 0.511
Ethanolamine phospholipid ratio to M01, Mean, Post Mortem Ctl, Male ([2]; serum, males, post mortem control): 0.024
